PubChem BioAssay AID1224830, NIAID, 2016

Screen: 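Regulators of TLR4 signalling towards TNF-alpha in macrophage-like cells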 (primary screen)
System: human THP-1 monocytic leukaemia cells, TNF dual-luciferase reporter clone, PMA-differentiated to macrophage-like cells
Reagent: siRNA pool against human genes, 50 nM
Duration: LPS for 4 h, given about 3 days after siRNA transfection
Challenge: bacterial LPS (TLR4 ligand), 10 ng/ml
Measured: 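Ratio of firefly to renilla light, scaled to the plate median and expressed as a robust z-score per replicate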
Scale: TNF reporter robust z-score: higher = stronger TNF reporter response to LPS
Rule for the call: 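Each well counts as active if its z-score is over 2.8 or under -1.5; controls are left without a call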
The whole screen tested about 18,000 reagents; shown is an unselected part. Over the whole deposit, about 2,900 (16%) are marked active. 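Calls are made per well; low scores hint the gene aids the LPS response, high scores that it dampens it.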 A number with no mark means an inactive call. Repeated entries: four replicate wells of each siRNA pool.

Target gene | TNF reporter robust z-score
OR1N2 | -1.02
OR1N2 | -0.57
OR1N2 | -0.1
OR1N2 | -0.2
EFCAB12 | -0.65
EFCAB12 | 2.17
EFCAB12 | -0.67
EFCAB12 | 0.15
MTERF2 | -0.9
MTERF2 | -1
MTERF2 | -0.37
MTERF2 | -0.47
CKM | -0.71
CKM | 2.28
CKM | -1.1
CKM | -1.22
UBE2G1 | -0.34
UBE2G1 | 7.29 (active)
UBE2G1 | 1.25
UBE2G1 | -0.11
PCDHGB5 | 0.38
PCDHGB5 | 2.18
PCDHGB5 | 1.1
PCDHGB5 | 0.94
IGF2-AS | -0.55
IGF2-AS | -0.17
IGF2-AS | 0.05
IGF2-AS | 2.36
TRMT10A | 1.64
TRMT10A | 0.2
TRMT10A | -0.01
TRMT10A | -0.63
GJA5 | -0.26
GJA5 | 1.09
GJA5 | 1.11
GJA5 | 0.83
FAM53B | 0.16
FAM53B | -0.52
FAM53B | 0.18
FAM53B | -0.27
PRH1 | -0.61
PRH1 | -0.76
PRH1 | -1.08
PRH1 | -0.83
MANBA | 0.4
MANBA | 0.94
MANBA | 0.31
MANBA | -0.34
CNBD2 | -0.47
CNBD2 | 0.02
CNBD2 | 0.8
CNBD2 | 0.24
ACKR4 | -0.07
ACKR4 | 0
ACKR4 | -0.35
ACKR4 | -0.4
HLA-B | 0.23
HLA-B | 0.36
HLA-B | -0.49
HLA-B | -0.2
DES | 0.75
DES | -0.09
DES | -0.44
OR52E6 | 1.58
OR52E6 | -0.2
OR52E6 | 1.36
OR52E6 | 0.63
DNASE1L3 | -1.06
DNASE1L3 | -1.22
DNASE1L3 | -0.76
DNASE1L3 | -0.91
FAM89B | 0
FAM89B | -0.18
FAM89B | -0.83
FAM89B | 1.16

Sorted by “TNF reporter robust z-score” (high to low): some entries from above.
Target gene | TNF reporter robust z-score
EFCAB12 | 0.15
MTERF2 | -0.37
MTERF2 | -0.47
EFCAB12 | -0.67
MTERF2 | -0.9
MTERF2 | -1
